“And” between values parts separate entries of the source, which are not always exact repeats. Equal values may be shown once. About 3,700 (0.93%) of roughly 400,000 compounds were called active. Inconclusive results, whose numbers are uncertain, are shown with a selection of clear calls. Calls come from the whole dose curve; as a rule, active = well fitted inhibition curve with a large enough effect; inconclusive = small, poorly fitted or top-dose-only effect, or another doubt; inactive = no such curve, though single readings can be large or run the other way. Potencies beside an inconclusive call are fits to weak or partial responses and may not hold up.
biological target: Vitamin D3 receptor (Homo sapiens) (UniProt P11473); experiment: Inhibitors of the vitamin D receptor (VDR): qHTS; conditions: VDR-SRC2-3 peptide fluorescence polarization, 2 h; max response, negative = inhibition: stronger effect = lower value
Method in brief: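 Inhibition of the VDR/SRC2-3 peptide interaction is quantified by fluorescence polarization. Compounds (23 nl, pintool) incubate with the reagents for 2 hours at ambient room temperature.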
% is set by controls: 0 for no effect and ±100 for the full control effect; potency is the fitted concentration of half-maximal effect.

Protein sequences, listed by entry. Tags and fused reporters are not part of them. Lines headed by an entry give the natural chain unless they say otherwise; changes in a name come on top.
UniProt P11473: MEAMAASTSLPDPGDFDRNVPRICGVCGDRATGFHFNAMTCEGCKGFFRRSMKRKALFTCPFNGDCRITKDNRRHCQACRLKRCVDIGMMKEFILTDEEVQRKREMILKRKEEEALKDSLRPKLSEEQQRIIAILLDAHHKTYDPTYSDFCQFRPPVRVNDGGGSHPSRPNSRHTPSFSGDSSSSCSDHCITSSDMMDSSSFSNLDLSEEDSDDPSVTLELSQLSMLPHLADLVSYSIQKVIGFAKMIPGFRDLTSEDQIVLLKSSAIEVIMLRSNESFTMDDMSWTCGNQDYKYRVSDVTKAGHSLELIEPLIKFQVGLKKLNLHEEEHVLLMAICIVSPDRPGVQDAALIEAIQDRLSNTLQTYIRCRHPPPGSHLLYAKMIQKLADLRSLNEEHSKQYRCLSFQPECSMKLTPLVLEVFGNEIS

Structure (SMILES) | Potency | max response, negative = inhibition
Cc1nnc(SCC2=C(C(=O)O)N3C(=O)C(NC(=O)c4cccc(F)c4F)C3SC2)s1 (stereo unspecified) | inconclusive: 56.2 µM [inhibitor, partial curve, poor fit] | –
Cc1cc(N2CC(C)OC(C)C2)nc2ccccc12 (stereo unspecified) | inconclusive: 89.1 µM [inhibitor, single point] | –
CC(C(=O)Nc1ccc(S(=O)(=O)N2CCCC2)cc1)N1CCc2ccccc2C1 (stereo unspecified) | inconclusive: 3.98 µM [inhibitor, partial curve, poor fit] | –
OCCC1CCCCN1CC(O)COCc1ccc(Cl)cc1 (stereo unspecified) | – | inactive: -1.62%
O=C(Nc1ccc(F)cc1)Nc1nnc(Cc2ccccc2F)s1 | active: 70.8 µM | –
N#C/C(=C\c1cccnc1)C(=O)NC1CCCCC1 | inconclusive: 70.8 µM [inhibitor, single point] | –
COc1ccc(C(=O)c2c(O)cc(-c3ccc(OC)cc3)oc2=O)cc1 | inconclusive: 11.2 µM [inhibitor, full curve] | –
CCCCC(CCC(=O)O)(C(=O)OCC)c1csc(Nc2ccc(C)cc2)n1 (stereo unspecified) | inconclusive: 79.4 µM [inhibitor, partial curve, poor fit] | –
NC(=O)C1CN(C(=O)c2cccc(S(=O)(=O)N3CCc4ccccc43)c2)c2ccccc2O1 (stereo unspecified) | – | inactive: 5.42%
CC(=O)c1c(C)[nH]c(C(=O)COC(=O)CCCOc2ccccc2)c1C | – | inactive: 11.1%
S=C(NCC1CCCO1)N1CCN(c2ccccc2)CC1 (stereo unspecified) | – | inactive: -7.1%
CCCCNC1C(CC)C(CCC)C(C#N)(C#N)C1(C#N)C#N (stereo unspecified) | active: 44.7 µM | –
CCCCC(=O)O[C@@]1(C(=O)CO)C(C)CC2C3CCC4=CC(=O)C=C[C@@]4(C)[C@]3(F)C(O)C[C@]21C (stereo partly specified) | inconclusive: 89.1 µM [inhibitor, partial curve, poor fit] | –
CCOC(=O)N1CCC(N2Cc3cccc(C(=O)Nc4c(C)cccc4CC)c3C2=O)CC1 | inconclusive: 89.1 µM [inhibitor, partial curve, poor fit] | –
CCC(C)NC(=O)c1cc2cc3ccc(OC)cc3nc2o1 (stereo unspecified) | – | inactive: 9.29%
Cc1ccc2cc(C#N)c(N3CCN(C(=O)c4ccccc4)CC3)nc2c1 | inconclusive: 100 µM [inhibitor, single point] | –
C[C@H](NC(=O)C1CC(=O)N(c2ccc3c(c2)OCO3)C1)C(=O)NC1CCCC1 (stereo partly specified) | inconclusive: 31.6 µM [inhibitor, partial curve, poor fit] | –
Cc1ccc(C(=O)C2=C(O)C(=O)N(Cc3ccco3)C2c2cccc(Cl)c2)o1 (stereo unspecified) | inconclusive: 79.4 µM [inhibitor, partial curve] | –
CN(c1ccccc1)S(=O)(=O)c1ccc(NC(=O)c2nc(S(C)(=O)=O)ncc2Cl)cc1 | active: 14.1 µM and active: 20 µM | –
COc1ccc(C(=O)N2CCC[C@@]3(CCN(c4cccc(-c5ccccc5)c4)C3)C2)cc1 | active: 39.8 µM | –
O=[N+]([O-])c1ccc(/C=N/n2c(COc3ccccc3)n[nH]c2=S)cc1 | – | inactive: -14.2%

Sorted by count of non-hydrogen atoms (rising): some entries from above.
Structure (SMILES) | Potency | max response, negative = inhibition
CCC(C)NC(=O)c1cc2cc3ccc(OC)cc3nc2o1 (stereo unspecified) | – | inactive: 9.29%
Cc1nnc(SCC2=C(C(=O)O)N3C(=O)C(NC(=O)c4cccc(F)c4F)C3SC2)s1 (stereo unspecified) | inconclusive: 56.2 µM [inhibitor, partial curve, poor fit] | –
CCCCC(=O)O[C@@]1(C(=O)CO)C(C)CC2C3CCC4=CC(=O)C=C[C@@]4(C)[C@]3(F)C(O)C[C@]21C (stereo partly specified) | inconclusive: 89.1 µM [inhibitor, partial curve, poor fit] | –

Next compounds.

Structure (SMILES) | Potency | max response, negative = inhibition
COc1ccccc1CNc1ccnc(-c2c(C)noc2C)n1 | inconclusive: 44.7 µM [inhibitor, partial curve, poor fit] | –
COc1cc2c(-c3cccc(Cl)c3)nc3c(c(C)nn3-c3ccccc3)c2cc1OC | – | inactive: -4.24%
COc1ccc(CCNC(=O)c2ccc(Cl)c(S(=O)(=O)N(C)c3ccccc3)c2)cc1 | inconclusive: 89.1 µM [inhibitor, partial curve, poor fit] | –
CCOc1ccc(/C=C/C(=O)c2ccccc2)cc1OC | active: 79.4 µM | –
COc1ccc(C(=O)COC(=O)c2cc3ccccc3oc2=O)c(OC)c1 | inconclusive: 39.8 µM [inhibitor, single point] | –
Cc1cc(F)ccc1NC(=O)c1cc(S(=O)(=O)N2CCc3ccccc32)cn1C | inconclusive: 100 µM [inhibitor, partial curve, poor fit] | –
CCN(CC)CCC(c1cc(OC)c(OC)c(OC)c1)c1c(OC)cc(OC)c2c(C)cc(=O)oc12 (stereo unspecified) | – | inactive: 4.45% and inactive: -8.27%
CCCCN1/C(=C/c2ccc3ccccc3[n+]2CC)Sc2ccccc21 | – | inactive: 7.68%
CC(=O)OC1C=C[C@]2(C)C(CC(OC(C)=O)[C@@]3(C)C4=CC(=O)OC(c5ccoc5)[C@]4(C)CCC23)C1(C)C (stereo partly specified) | active: 56.2 µM | –
Cc1cc(NC(=O)CS(=O)(=O)c2cn(C)c3ccccc23)no1 | inconclusive: 100 µM [inhibitor, partial curve, poor fit] | –
CCN(C(=O)COC(=O)C1=COCCO1)c1c(N)n(Cc2ccccc2)c(=O)[nH]c1=O | inconclusive: 56.2 µM [inhibitor, single point] | –
COc1ccc(C(C)NC(=S)NC2CCCC2)cc1OC (stereo unspecified) | inconclusive: 79.4 µM [inhibitor, single point] | –
COc1ccc(C=CC(=O)C=CC=Cc2ccccc2)cc1 | inconclusive: 35.5 µM [inhibitor, full curve] | –
Cc1ccc(NNS(=O)(=O)c2ccc(C)cc2)cc1 | inconclusive: 35.5 µM [inhibitor, partial curve, poor fit] | –
N#CCCN(C(=O)COC(=O)c1ccc2c(=O)n3c(nc2c1)CCC3)c1ccc(F)cc1 | inconclusive: 100 µM [inhibitor, single point] | –
Cc1cccc(NC(=O)C2CCCN(S(=O)(=O)c3ccc(Br)s3)C2)c1 (stereo unspecified) | – | inactive: -13.3%
CC1(C)CC(=O)C(C=Nc2ccc(C(=O)c3ccccc3)cc2N=CC2=C(O)CC(C)(C)CC2=O)=C(O)C1 | inconclusive: 89.1 µM [inhibitor, partial curve, poor fit] | –
CC(Sc1nc2ccccc2s1)C(=O)N(C)Cc1ccccc1 (stereo unspecified) | inconclusive: 89.1 µM [inhibitor, single point] | –
CCOCCCNC(=O)c1ccccc1SCC | inconclusive: 79.4 µM [inhibitor, single point] | –
O=C(CCCC(=O)N/N=C\c1ccccn1)N/N=C\c1ccccn1 | – | inactive: -9.57%
